{"source": "patent US8772292B2", "about": "“Process for the preparation of a medicament comprising vardenafil hydrochloride trihydrate” (Ratiopharm GmbH, priority 2007, dated 2014)", "key": {"[1]": {"test": "Karl Fischer water content before and after grinding", "format": "physicochemical"}, "[2]": {"test": "Thermogravimetric analysis (TGA)", "format": "physicochemical"}, "[3]": {"settings": "cited from earlier work"}}, "note": "Values joined by “and” are separate entries in the source; they are usually repeats but may differ in a detail not shown here. Equal entries are not always repeated. Structures can show the parent of a compound that is named as a salt. At least one compound was matched to its structure with a doubt left.", "data": [{"smiles": "CCCc1nc(C)c2c(=O)[nH]c(-c3cc(S(=O)(=O)N4CCN(CC)CC4)ccc3OCC)nn12", "note": "[Vardenafil hydrochloride trihydrate, {2-ethoxy-5-[(4-ethyl-1-piperazinyl)sulfonyl]phenyl}-5-methyl-7-propylimidazo-[5,1-f][1,2,4]triazin-4(3H)one]", "values": [{"measurement": "change of water content due to the grinding", "setting": "[1]; ground with CoMill, Karl Fischer before and after", "value": "does not change significantly"}, {"measurement": "Karl Fischer water content", "setting": "[1]; ground, heating temperature 105° C.", "value": "9.29% and 9.33%"}, {"measurement": "Karl Fischer water content", "setting": "[1]; ground, heating temperature 130° C.", "value": "9.37% and 9.35%"}, {"measurement": "Karl Fischer water content", "setting": "[1]; ground, heating temperature 160° C.", "value": "9.34% and 9.32%"}, {"measurement": "Karl Fischer water content", "setting": "[1]; ground, heating temperature gradient 60-180° C.", "value": "9.23% and 9.33%"}, {"measurement": "Karl Fischer water content", "setting": "[1]; non-ground, heating temperature 130° C.", "value": "9.39% and 9.36%"}, {"measurement": "temperature of clear weight loss", "setting": "[2]; attributed to loss of adsorbed water", "value": "50-100 °C"}, {"measurement": "temperature of small weight loss", "setting": "[2]; attributed to water of crystallization", "value": "approx. 190 °C"}, {"measurement": "water content (Karl Fischer)", "setting": "[3]; stated in WO99/24433 (page 263, Example 336)", "value": 9.4, "unit": "%"}, {"measurement": "water content", "setting": "[3]; stated in WO2004/006894 (page 4)", "value": 9.3, "unit": "%"}]}]}
